The text below walks through data of paper PMC5234120, “Age-related macular degeneration associated polymorphism rs10490924 in ARMS2 results in deficiency of a complement activator” (Journal of Neuroinflammation, 2017).

Amino acid sequences for entries named in this document (tags omitted). Residues count along the entry.
UniProt P01024, residues 1002-1303: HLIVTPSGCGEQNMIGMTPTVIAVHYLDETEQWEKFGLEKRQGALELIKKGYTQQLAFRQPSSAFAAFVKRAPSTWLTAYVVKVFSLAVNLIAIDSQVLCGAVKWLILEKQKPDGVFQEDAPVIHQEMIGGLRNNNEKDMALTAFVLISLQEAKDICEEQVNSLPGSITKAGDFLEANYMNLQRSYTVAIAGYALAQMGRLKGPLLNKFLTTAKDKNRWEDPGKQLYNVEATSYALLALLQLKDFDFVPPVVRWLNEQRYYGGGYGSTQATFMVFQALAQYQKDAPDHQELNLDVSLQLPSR
UniProt P27918, residues 28-469: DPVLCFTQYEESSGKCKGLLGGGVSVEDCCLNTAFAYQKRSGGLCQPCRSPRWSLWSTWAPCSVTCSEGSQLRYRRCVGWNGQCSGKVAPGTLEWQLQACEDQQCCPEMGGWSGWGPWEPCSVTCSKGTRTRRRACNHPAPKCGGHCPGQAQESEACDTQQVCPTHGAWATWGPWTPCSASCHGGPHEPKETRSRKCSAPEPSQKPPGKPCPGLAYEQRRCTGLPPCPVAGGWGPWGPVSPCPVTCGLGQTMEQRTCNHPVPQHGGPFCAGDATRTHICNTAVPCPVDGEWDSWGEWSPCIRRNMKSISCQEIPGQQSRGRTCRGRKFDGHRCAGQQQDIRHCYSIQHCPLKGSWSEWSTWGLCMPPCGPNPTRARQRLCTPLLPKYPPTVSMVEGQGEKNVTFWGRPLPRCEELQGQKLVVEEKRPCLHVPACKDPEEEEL

Experiment [1] has as its target T1, ARMS2 peptide 1 (amino acids 1 to 40) (human) (UniProt P0C7Q2).
T1 sequence (peptide): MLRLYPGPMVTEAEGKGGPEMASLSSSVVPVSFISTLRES
The experiment in a line: ELISA; ARMS2 peptides 1, 2, 3 (each 500 nM) coated on the plate; 2 uM properdin (TECOmedical) in PBS; detected with monoclonal properdin antibody; both purified.

For experiment [2], the target named is T2, ARMS2 peptide 2 (amino acids 41 to 70) (human) (UniProt P0C7Q2).
T2 sequence (peptide): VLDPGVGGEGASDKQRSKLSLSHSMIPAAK
Described as above.

Experiment [3] has as its target C3d (UniProt P01024). The experiment in a line: ELISA; complement proteins (each 500 ng in PBS) coated on MediSorp plates; 500 ng ARMS2 in 2% BSA, 0.05% Tween-20 in PBS, 1 h RT; ARMS2 detected with ARMS2 antiserum; both purified. (ELISA stands for enzyme-linked immunosorbent assay.)

No constants are given. Whether binding was seen depends on the method and setting.

For the molecule properdin (from UniProt P27918 28-469), the binding entry in experiment [1] and in experiment [2] was “no binding (tested: 2 μM properdin)” throughout.

B1: recombinant ARMS2 (age-related maculopathy susceptibility 2) (natural protein, human, UniProt P0C7Q2 1-107, looked up)
chain: MLRLYPGPMVTEAEGKGGPEMASLSSSVVPVSFISTLRESVLDPGVGGEGASDKQRSKLSLSHSMIPAAKIHTELCLPAFFSPAGTQRRFQQPQHHLTLSIIHTAAR
notes: ARMS2, human, codon usage optimized full length cDNA; Glycosylated in P. pastoris (17 and 15 kDa bands); also called His-tagged ARMS2; rARMS2
Take B1: in experiment [3], the binding result was “no binding (tested: 500 ng ARMS2)”.
